Measurements: article PMC10201434, “The DNA replication initiation protein DnaD recognises a specific strand of the Bacillus subtilis chromosome origin” (Nucleic Acids Research, 2021)

The chains behind the UniProt entries cited, without tags or fusion partners. Where a name states a change or a piece, a line headed by the entry shows the natural chain unless it says otherwise.
UniProt P39787: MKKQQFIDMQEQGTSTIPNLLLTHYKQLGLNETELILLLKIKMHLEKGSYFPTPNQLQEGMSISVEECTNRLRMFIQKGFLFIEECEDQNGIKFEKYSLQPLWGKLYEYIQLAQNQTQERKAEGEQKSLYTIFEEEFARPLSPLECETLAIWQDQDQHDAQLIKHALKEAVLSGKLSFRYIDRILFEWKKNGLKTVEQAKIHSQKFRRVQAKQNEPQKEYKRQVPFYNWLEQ

Assays:
[1] = target: DnaD (Bacillus subtilis 168CA) (UniProt P39787); assay: fluorescence polarisation; details: FP: 10 mM HEPES-KOH pH 7.5, 1 mM Mg acetate, 100 mM K glutamate, 20 C, 1.875 nM DNA, DnaD up to 500 nM, 10 min, recombinant protein, residues 1-232, protein details: His14-SUMO tag removed
[2] = target: DnaD K221Bpa (Bacillus subtilis 168CA) (UniProt P39787); assay: Bpa photo-crosslinking; details: UV, recombinant protein, residues 1-232, protein details: His14-SUMO tag removed
[3] = label: fluorescein 5', single-stranded DNA
[4] = label: Cy5 5', single-stranded DNA

Sequence | binding result [1, 3] | also measured
AAAAAAAAAAAAAAAAAA [polyA18 (oCW1090)] | binds more weakly | –
AAAAAAAAAAAAAAAAAA [polyA control (oSP1137)] | – | binding result [2, 4]: binds more weakly
AAAAAAAAAAAAAAAAAAAAAAAAAAAAAAAAAAAAAAAA [polyA(40) (oCW853)] | binds more weakly | –
ATAATAAAAAAAATAATA [polyA with two TnnT (oCW1129)] | binds | –
CACCACCCCCCCCACCAC [polyC with two AnnA (oCW1216)] | no binding | –
CCCCCCCCCCCCCTCCTC [single TnnT (oCW1165)] | no binding | –
CCCCCCCTCCTCCCCCCC [single TnnT (oCW1140)] | no binding | –
CTACTATTACTTCAACAA [DRE mutant TnnT to AnnA (oCW1247)] | binds more weakly | –
CTACTATTACTTCTACTA (double strand) [DRE dsDNA (oSP1132:oCW1040)] | – | binding result ([2]; label: Cy5 5' on strand 1): no binding
CTACTATTACTTCTACTA [DRE (oSP1132)] | – | binding result [2, 4]: binds
CTCCTCCCCCCCCCCCCC [single TnnT (oCW1164)] | no binding | –
CTCCTCCTCCTCCTCCTC [polyC with T every third base (oCW1139)] | binds | –
CTTCTTTTTCTTCTTCTT [polyT with DRE cytosines (oCW1054)] | – | binding result ([1]; weaker than DRE, stronger than polyT18, label: fluorescein 5', single-stranded DNA): binds more weakly
GATGATAATGAAGATGAT [DnaA trios (oSP1133)] | – | binding result [2, 4]: binds more weakly
TCACTCAAAGGCGGTAATAC (double strand) [dsDNA (oCW1034:oCW1124)] | – | binding result ([1]; label: fluorescein 5' on strand 2): binds more weakly
TTATTATTATTTTTATTA [polyT with DRE adenines (oCW1691)] | – | binding result ([1]; similar to polyT18, label: fluorescein 5', single-stranded DNA): binds more weakly
TTTTTTTTTTTTTTTTTT [polyT control (oSP1135)] | – | binding result [2, 4]: binds more weakly

No signal at the amounts used counts as a negative. At least one verdict was read from the data and is not stated in words by the source. Weaker means in comparison with the reference protein, sequence or condition of that experiment. Construct, isoform or probe ends are uncertain for at least one entry.
